Measurements reported in PubChem BioAssay AID1224830 (NIAID, 2016).
Test: 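Regulators of TLR4 signalling towards TNF-alpha in macrophage-like cells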 (primary screen). Cells: human THP-1 monocytic leukaemia cells, TNF dual-luciferase reporter clone, PMA-differentiated to macrophage-like cells. Reagents: siRNA pool against human genes, 50 nM. Duration: LPS for 4 h, given about 3 days after siRNA transfection. Treatment: bacterial LPS (TLR4 ligand), 10 ng/ml. Read-out: 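TNF firefly reporter luminescence divided by renilla, normalised to the plate median, then turned into a robust z-score for each replicate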. Direction: TNF reporter robust z-score: higher = stronger TNF reporter response to LPS. Hit rule: 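Each well counts as active if its z-score is over 2.8 or under -1.5; controls are left without a call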.
In all, the deposit lists about 18,000 reagents; this is an unselected part. About 2,900 of all reagents (16%) count as active. 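Calls are made per well; low scores hint the gene aids the LPS response, high scores that it dampens it.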 Repeated entries: four replicate wells of each siRNA pool.

XRN1 | TNF reporter robust z-score: -0.24; activity call: inactive
XRN1 | TNF reporter robust z-score: 0.18; activity call: inactive
XRN1 | TNF reporter robust z-score: 0.08; activity call: inactive
XRN1 | TNF reporter robust z-score: -0.19; activity call: inactive
SLC37A2 | TNF reporter robust z-score: -0.77; activity call: inactive
SLC37A2 | TNF reporter robust z-score: -0.26; activity call: inactive
SLC37A2 | TNF reporter robust z-score: -0.55; activity call: inactive
SLC37A2 | TNF reporter robust z-score: 0.33; activity call: inactive
DEFA5 | TNF reporter robust z-score: 2; activity call: inactive
DEFA5 | TNF reporter robust z-score: 4.61; activity call: active
DEFA5 | TNF reporter robust z-score: 3.39; activity call: active
DEFA5 | TNF reporter robust z-score: 2.58; activity call: inactive
KRTAP19-2 | TNF reporter robust z-score: 0.5; activity call: inactive
KRTAP19-2 | TNF reporter robust z-score: 0.7; activity call: inactive
KRTAP19-2 | TNF reporter robust z-score: 0.18; activity call: inactive
KRTAP19-2 | TNF reporter robust z-score: 0.77; activity call: inactive
OR2H1 | TNF reporter robust z-score: 1.2; activity call: inactive
OR2H1 | TNF reporter robust z-score: 0.56; activity call: inactive
OR2H1 | TNF reporter robust z-score: 0.68; activity call: inactive
OR2H1 | TNF reporter robust z-score: -0.91; activity call: inactive
